Some results were stated once for a whole list of compounds, not compound by compound.
Assay: Pour point observation according to ASTM D-97
Format: physicochemical
Conditions: 5 wt % in PICs with 25 wt % FloZol 2252, versus working example 20
Source text: A number of working examples were composed and tested for flow indicative of solidification point depression (e.g., pour point temperatures). The compositions tested herein are said to “pour or flow” at the indicated temperature when the PIC of each working example, vertically at rest on a substantially horizontal surface the cylindrical container (radius 1 inch, height 2 inches), flows observably within about 10 seconds when tipped to a substantially horizontal position. This amount of flow is known to be sufficient to indicate that the composition is pourable or pumpable for use in the field, where such concentrates are applied to one or more crude oil transportation or storage systems. The flowing samples are said to have a pour point at temperatures where the flow is observed. The pour point is above the solidification temperature for a given sample. The effect on pour point was observed according to ASTM D-97 test method (including storage for a half hour in a freezer set the associated temperature prior to observation for pour or flow).
The effect on pour point was observed according to ASTM D-97 test method (storage for at least one half hour in a freezer set at a specific temperature (e.g., −60° C.)). […]

Structure (SMILES) | depressed the pour point by
O=C1CCCN1 [2-Pyrollidone, 2-pyrrolidone] | at least 55 °C
O=C1COCCN1 [3-Ketomorpholine, 3-ketomorpholine] | at least 55 °C

From patent US10465854B2, “Temperature-stable paraffin inhibitor compositions” (Ecolab USA Inc., priority 2016, dated 2019)
